PubChem BioAssay AID1259424 | University of Nebraska Medical Center, 2018

Screen: 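Rank knockdowns across the genome by resemblance to the KSR1 depletion profile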 (primary screen)
Cell system: human HCT116 colon cancer cells
Reagents: siRNA pool against human genes, 50 nM
Measurement: 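Log2 levels of six mRNAs (branched-DNA multiplex), adjusted by two reference genes and the non-targeting median, then scored against the average KSR1 knockdown pattern as Pearson r and euclidean distance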
Scale: mean correlation with KSR1 profile: higher = expression change more like KSR1 knockdown; mean distance from KSR1 profile: higher = expression change less like KSR1 knockdown
In all, the deposit lists about 14,000 reagents; this is a part drawn at random. 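Higher correlation or smaller distance means closer resemblance to KSR1 loss; control wells, including KSR1 knockdowns, recur on many plates.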 Not all columns of the deposit are shown. The record does not give: the time to read-out.

The opening 2 records, to show the layout:
{"gene":"FZD5","mean correlation with KSR1 profile":0.0889,"mean distance from KSR1 profile":2.76}
{"gene":"IGFBP5","mean correlation with KSR1 profile":0.708,"mean distance from KSR1 profile":0.938}

Results, repeating the preview:
{"gene":"FZD5","mean correlation with KSR1 profile":0.0889,"mean distance from KSR1 profile":2.76}
{"gene":"IGFBP5","mean correlation with KSR1 profile":0.708,"mean distance from KSR1 profile":0.938}
{"gene":"PANK3","mean correlation with KSR1 profile":0.655,"mean distance from KSR1 profile":0.984}
{"gene":"TP73","mean correlation with KSR1 profile":0.334,"mean distance from KSR1 profile":1.33}
{"gene":"CCR7","mean correlation with KSR1 profile":0.469,"mean distance from KSR1 profile":2.58}
{"gene":"ATOH8","mean correlation with KSR1 profile":0.209,"mean distance from KSR1 profile":2.51}
{"gene":"TTC9","mean correlation with KSR1 profile":-0.792,"mean distance from KSR1 profile":2.83}
{"gene":"GSTM1","mean correlation with KSR1 profile":0.189,"mean distance from KSR1 profile":2.03}
{"gene":"PARP1","mean correlation with KSR1 profile":-0.548,"mean distance from KSR1 profile":1.91}
{"gene":"ANXA6","mean correlation with KSR1 profile":-0.52,"mean distance from KSR1 profile":1.94}
{"gene":"HECTD1","mean correlation with KSR1 profile":0.209,"mean distance from KSR1 profile":1.68}
{"gene":"ZBED8","mean correlation with KSR1 profile":0.0494,"mean distance from KSR1 profile":2.29}
{"gene":"CDC42BPA","mean correlation with KSR1 profile":-0.553,"mean distance from KSR1 profile":2.33}
{"gene":"SULT1C4","mean correlation with KSR1 profile":0.344,"mean distance from KSR1 profile":1.2}
{"gene":"CORO2A","mean correlation with KSR1 profile":0.0455,"mean distance from KSR1 profile":3.79}
{"gene":"GALNT6","mean correlation with KSR1 profile":-0.0497,"mean distance from KSR1 profile":1.62}
{"gene":"TM9SF2","mean correlation with KSR1 profile":0.173,"mean distance from KSR1 profile":0.964}
{"gene":"IL17RD","mean correlation with KSR1 profile":-0.0494,"mean distance from KSR1 profile":3.59}
{"gene":"INSIG2","mean correlation with KSR1 profile":0.304,"mean distance from KSR1 profile":0.983}
